Laboratory results published in the supplement of paper PMC12823440, “Inhibitors supercharge kinase turnover through native proteolytic circuits” (Nature, 2025).
Where a name gives a salt, the structure may show the parent alone. This is one part of the list. Hit calls seldom repeat between salt and free forms of one compound.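 Kinases, fused to nanoluciferase, were expressed in K562 cells; luminescence was measured every 4 h from 2 to 18 h as percent of control (DMSO = 100%, positive control = 0%). A time point is decreased if signal falls significantly (2 sigma). Hits were called by the authors by a rule that is not shown; the count of time points alone does not decide it.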

Amino acid sequences for entries named in this document (tags omitted). A change or cut given only in a name is not applied to a line headed by its entry.
UniProt Q05397, whole entry, looked up: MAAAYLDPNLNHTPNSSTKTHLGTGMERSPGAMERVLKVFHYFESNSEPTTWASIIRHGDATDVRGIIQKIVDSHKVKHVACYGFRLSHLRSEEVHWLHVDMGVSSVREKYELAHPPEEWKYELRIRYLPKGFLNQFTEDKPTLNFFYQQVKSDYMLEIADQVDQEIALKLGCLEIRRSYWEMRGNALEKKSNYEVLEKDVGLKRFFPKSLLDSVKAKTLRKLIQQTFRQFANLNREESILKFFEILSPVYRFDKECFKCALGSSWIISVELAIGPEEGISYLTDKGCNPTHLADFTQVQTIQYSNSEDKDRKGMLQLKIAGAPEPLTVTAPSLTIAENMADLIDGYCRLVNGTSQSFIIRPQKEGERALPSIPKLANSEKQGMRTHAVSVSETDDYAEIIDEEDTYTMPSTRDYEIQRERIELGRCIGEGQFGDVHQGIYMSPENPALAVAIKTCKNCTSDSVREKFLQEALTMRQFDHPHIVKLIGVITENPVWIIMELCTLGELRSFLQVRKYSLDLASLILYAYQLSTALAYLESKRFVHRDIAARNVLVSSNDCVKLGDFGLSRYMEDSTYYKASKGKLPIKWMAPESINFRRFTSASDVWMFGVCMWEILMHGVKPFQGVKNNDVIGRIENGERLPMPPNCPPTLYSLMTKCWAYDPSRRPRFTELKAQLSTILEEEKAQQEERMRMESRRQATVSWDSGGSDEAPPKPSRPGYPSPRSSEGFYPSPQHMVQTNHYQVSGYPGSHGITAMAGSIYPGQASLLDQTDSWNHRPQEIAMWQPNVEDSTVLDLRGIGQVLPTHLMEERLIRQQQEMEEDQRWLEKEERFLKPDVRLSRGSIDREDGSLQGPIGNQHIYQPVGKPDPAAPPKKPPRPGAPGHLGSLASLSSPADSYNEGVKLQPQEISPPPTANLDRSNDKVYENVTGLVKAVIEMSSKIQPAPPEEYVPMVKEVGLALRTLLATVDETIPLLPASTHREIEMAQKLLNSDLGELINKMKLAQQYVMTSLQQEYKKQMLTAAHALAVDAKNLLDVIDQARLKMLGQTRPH
UniProt Q01974, whole entry: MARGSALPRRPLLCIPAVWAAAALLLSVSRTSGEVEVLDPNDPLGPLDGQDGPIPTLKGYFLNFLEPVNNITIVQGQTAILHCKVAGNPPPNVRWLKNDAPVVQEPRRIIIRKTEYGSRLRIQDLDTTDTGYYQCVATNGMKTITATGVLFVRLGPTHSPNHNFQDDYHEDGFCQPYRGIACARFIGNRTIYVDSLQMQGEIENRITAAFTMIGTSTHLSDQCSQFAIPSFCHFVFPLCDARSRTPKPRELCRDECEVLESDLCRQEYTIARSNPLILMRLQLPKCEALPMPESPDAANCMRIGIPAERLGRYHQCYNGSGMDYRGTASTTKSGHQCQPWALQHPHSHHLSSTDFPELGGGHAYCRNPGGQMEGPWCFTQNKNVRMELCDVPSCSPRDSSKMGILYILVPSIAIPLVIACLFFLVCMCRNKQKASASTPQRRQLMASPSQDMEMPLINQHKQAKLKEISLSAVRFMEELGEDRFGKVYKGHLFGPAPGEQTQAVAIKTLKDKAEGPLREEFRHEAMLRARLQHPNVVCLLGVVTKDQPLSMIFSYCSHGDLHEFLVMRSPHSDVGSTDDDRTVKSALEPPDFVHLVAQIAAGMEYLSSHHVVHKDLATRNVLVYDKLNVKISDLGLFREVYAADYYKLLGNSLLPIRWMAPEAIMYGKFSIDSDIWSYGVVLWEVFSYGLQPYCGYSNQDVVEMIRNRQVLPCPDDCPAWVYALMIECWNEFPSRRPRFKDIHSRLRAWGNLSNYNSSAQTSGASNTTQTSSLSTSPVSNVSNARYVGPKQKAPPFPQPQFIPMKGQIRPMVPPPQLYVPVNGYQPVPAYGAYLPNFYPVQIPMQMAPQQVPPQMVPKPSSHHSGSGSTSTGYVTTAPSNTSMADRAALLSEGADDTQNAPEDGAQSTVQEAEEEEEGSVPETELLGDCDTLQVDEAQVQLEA
UniProt Q15418, whole entry: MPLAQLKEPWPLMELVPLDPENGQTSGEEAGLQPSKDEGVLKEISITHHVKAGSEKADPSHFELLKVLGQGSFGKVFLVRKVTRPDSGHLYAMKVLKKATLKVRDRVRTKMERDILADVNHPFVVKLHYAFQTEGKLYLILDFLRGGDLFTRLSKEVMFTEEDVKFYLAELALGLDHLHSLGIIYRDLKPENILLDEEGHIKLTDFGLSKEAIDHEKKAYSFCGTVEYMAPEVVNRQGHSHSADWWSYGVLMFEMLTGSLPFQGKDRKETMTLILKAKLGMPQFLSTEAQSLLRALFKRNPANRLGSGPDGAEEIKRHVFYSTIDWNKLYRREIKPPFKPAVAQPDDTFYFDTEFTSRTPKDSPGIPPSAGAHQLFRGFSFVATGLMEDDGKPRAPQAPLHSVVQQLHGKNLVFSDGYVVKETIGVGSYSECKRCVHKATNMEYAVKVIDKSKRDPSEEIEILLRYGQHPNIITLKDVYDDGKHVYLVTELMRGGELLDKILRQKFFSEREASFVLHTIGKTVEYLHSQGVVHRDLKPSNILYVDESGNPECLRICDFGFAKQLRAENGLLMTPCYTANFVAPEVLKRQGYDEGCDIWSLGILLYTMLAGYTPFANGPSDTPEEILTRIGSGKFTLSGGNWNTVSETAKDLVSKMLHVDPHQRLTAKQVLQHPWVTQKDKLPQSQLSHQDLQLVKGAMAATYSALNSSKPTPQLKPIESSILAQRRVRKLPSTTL
UniProt Q9NYA1, whole entry: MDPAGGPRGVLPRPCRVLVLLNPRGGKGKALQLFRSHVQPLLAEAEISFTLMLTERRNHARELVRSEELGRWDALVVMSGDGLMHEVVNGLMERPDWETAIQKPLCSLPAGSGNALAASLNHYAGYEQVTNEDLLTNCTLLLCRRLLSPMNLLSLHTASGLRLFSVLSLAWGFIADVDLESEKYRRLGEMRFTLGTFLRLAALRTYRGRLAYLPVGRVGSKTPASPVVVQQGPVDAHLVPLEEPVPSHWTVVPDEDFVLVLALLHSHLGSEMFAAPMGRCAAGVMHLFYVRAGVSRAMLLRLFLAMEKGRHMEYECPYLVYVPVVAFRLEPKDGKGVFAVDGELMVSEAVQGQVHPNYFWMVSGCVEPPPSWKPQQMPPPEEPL
UniProt Q9Y6E0: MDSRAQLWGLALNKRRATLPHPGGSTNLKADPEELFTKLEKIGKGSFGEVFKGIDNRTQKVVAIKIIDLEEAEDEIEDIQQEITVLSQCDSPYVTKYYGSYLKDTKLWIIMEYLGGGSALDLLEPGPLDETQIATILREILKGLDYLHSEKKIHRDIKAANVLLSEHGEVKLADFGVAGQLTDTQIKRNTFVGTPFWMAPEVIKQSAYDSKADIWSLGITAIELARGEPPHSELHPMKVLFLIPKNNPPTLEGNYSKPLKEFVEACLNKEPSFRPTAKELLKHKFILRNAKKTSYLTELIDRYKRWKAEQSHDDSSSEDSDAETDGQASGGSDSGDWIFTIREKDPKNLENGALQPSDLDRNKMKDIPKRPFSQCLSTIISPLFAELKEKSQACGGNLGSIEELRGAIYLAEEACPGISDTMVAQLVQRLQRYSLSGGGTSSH
UniProt Q15208: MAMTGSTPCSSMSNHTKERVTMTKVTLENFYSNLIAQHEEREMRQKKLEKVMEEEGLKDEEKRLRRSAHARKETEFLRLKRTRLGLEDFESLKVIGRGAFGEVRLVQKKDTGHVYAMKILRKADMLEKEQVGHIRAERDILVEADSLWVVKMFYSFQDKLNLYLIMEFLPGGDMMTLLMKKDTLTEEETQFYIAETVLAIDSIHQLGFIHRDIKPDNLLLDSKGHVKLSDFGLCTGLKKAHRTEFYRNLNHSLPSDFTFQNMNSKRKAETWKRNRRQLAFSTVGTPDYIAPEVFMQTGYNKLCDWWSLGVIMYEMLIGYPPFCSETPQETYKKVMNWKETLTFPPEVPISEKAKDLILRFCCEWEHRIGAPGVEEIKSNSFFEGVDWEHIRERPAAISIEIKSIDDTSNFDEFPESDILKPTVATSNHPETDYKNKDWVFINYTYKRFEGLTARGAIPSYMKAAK
UniProt P29597: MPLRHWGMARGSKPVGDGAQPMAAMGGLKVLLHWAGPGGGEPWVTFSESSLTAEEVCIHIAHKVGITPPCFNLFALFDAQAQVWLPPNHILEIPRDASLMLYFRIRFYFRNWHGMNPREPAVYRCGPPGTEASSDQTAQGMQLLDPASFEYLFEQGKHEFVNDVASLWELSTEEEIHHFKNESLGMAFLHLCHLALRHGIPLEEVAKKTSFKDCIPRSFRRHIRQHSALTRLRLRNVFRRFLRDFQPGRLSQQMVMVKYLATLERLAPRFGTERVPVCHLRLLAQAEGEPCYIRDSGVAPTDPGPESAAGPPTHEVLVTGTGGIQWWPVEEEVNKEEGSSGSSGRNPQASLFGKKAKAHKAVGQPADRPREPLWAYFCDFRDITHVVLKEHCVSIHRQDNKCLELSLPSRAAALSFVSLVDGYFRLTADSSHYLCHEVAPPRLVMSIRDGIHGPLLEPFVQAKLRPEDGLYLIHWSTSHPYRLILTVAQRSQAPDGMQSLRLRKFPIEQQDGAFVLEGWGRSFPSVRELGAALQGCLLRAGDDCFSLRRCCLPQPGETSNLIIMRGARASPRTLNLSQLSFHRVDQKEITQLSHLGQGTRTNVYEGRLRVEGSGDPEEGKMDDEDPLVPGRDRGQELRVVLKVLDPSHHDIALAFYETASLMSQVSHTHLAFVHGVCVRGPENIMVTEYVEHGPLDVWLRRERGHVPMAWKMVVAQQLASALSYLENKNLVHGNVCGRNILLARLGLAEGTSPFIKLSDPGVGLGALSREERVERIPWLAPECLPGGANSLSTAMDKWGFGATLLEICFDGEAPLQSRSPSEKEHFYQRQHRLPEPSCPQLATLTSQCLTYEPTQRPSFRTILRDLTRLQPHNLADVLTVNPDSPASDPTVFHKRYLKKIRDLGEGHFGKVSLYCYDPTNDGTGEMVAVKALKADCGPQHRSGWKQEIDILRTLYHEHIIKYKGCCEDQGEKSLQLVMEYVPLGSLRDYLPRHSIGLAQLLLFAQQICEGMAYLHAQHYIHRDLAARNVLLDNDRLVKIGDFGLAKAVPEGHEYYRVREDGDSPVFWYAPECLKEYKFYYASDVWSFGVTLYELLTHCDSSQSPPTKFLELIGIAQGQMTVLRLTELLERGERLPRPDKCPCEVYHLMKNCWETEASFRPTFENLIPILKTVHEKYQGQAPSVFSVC
UniProt Q6PHR2: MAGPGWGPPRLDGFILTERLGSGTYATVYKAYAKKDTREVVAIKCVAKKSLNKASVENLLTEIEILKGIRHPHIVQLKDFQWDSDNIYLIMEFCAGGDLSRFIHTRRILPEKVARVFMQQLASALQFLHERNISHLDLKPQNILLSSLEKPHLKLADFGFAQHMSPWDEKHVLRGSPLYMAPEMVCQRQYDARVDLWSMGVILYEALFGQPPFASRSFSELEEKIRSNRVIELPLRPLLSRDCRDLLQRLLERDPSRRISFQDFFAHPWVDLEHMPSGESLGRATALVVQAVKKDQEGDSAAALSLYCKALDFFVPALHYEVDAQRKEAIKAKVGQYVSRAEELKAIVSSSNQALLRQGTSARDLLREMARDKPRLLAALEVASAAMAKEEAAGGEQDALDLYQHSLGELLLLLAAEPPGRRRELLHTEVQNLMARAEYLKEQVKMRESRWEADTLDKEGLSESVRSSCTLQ

Legend:
Experiment in all cases: number of time points (of 5) at which kinase-Nluc abundance scored as decreased, DMSO-normalised (count); higher = more persistent destabilization
Settings in all cases: K562; 2-18 h
[1] = molecular target: PRKCA (UniProt P17252)
[2] = molecular target: PTK2 (UniProt Q05397)
[3] = molecular target: PTK2B (UniProt Q14289)
[4] = molecular target: RAF1 (UniProt P04049)
[5] = molecular target: RAF1_S257L (clone: RAF1_mut) (UniProt P04049)
[6] = molecular target: RET (UniProt P07949)
[7] = molecular target: RET_M918T (clone: RET_mut) (UniProt P07949)
[8] = molecular target: RIOK1 (UniProt Q9BRS2)
[9] = molecular target: RIPK1 (UniProt Q13546)
[10] = molecular target: RIPK2 (UniProt O43353)
[11] = molecular target: ROR2 (UniProt Q01974)
[12] = molecular target: RPS6KA1 (UniProt Q15418)
[13] = molecular target: SPHK1 (UniProt Q9NYA1)
[14] = molecular target: SRC (UniProt P12931)
[15] = molecular target: STK24 (UniProt Q9Y6E0)
[16] = molecular target: STK38 (UniProt Q15208)
[17] = molecular target: SYK (UniProt P43405)
[18] = molecular target: TEC (UniProt P42680)
[19] = molecular target: TYK2 (UniProt P29597)
[20] = molecular target: ULK3 (UniProt Q6PHR2)

Measured: number of time points

CC#CC(=O)N[C@H]1CCCN(c2c(F)cc(C(N)=O)c3[nH]c(C)c(C)c23)C1 [Branebrutinib] (10 µM)
0: all assays above

CC(C)n1cnc2c(NCc3cccc(C(F)(F)F)c3)ncnc21 [Longdaysin] (10 µM)
0: all assays above

COc1cc2c(Nc3ccc(NC(=O)c4ccccc4)cc3)ncnc2cc1OCCCN1CCOCC1 (10 µM)
2: [19]
0: all other assays above

O=c1cc(-c2ccccc2)oc2c(O)c(O)ccc12 [7,8-Dihydroxyflavone] (10 µM)
0: all assays above

O=C1NCCc2[nH]c(-c3ccnc(-c4cnc5ccccc5c4)c3)cc21 (10 µM)
0: all assays above

C[C@H](NC(=O)/C(C#N)=C/c1cccc(Br)n1)c1ccccc1 (2.5 µM)
3: [2]
2: [9]
0: all other assays above

O=C1Nc2ccccc2/C1=C/c1ccc(F)cc1 (10 µM)
0: all assays above

CC1(C)CC=C(c2nc(C3CC(C)(C)OC(C)(C)C3)ccc2NC(=O)c2nc(C#N)c[nH]2)CC1 [Edicotinib] (2.5 µM)
0: all assays above

N#C/C(=C\c1ccc(O)c(O)c1)C(=O)NCc1ccccc1 (10 µM)
0: all assays above

COc1cc(Oc2ccnc3cc(OC)c(OC)cc23)ccc1NC(=O)NC(C)c1nccs1 (stereo not given) (2.5 µM)
0: all assays above

O=C1Cc2c([nH]c3ccc(Br)cc23)-c2ncccc2N1 [1-Azakenpaullone] (10 µM)
0: all assays above

Cc1c[nH]c2ccccc12 [Skatole] (10 µM)
0: all assays above

CCN1CCN(c2ccc(Nc3cc(N(C)C(=O)Nc4c(Cl)c(OC)cc(OC)c4Cl)ncn3)cc2)CC1 [Infigratinib] (10 µM)
0: all assays above

COc1cc(OC)cc(N(CCNC(C)C)c2ccc3ncc(-c4cnn(C)c4)nc3c2)c1 [Erdafitinib] (2.5 µM)
4: [5]
0: all other assays above

CCCCC[C@H](O)CC(=O)CCc1ccc(O)c(OC)c1 [[6]-Gingerol] (10 µM)
0: all assays above

COc1ccc(F)c(F)c1C(=O)c1cnc(NC2CCN(S(C)(=O)=O)CC2)nc1N (2.5 µM)
3: [7] | [13] | [19]
2: [4] | [9] | [18]
4: [5]
1: [2] | [10] | [16]
0: all other assays above

NC(=O)c1ccc2nc(-c3ccc(Oc4ccc(Cl)cc4)cc3)[nH]c2c1 (10 µM)
0: all assays above

Nc1ncnc2c1c(-c1ccc(Oc3ccccc3)cc1)cn2C1CCCC1 (2.5 µM)
1: [18]
4: [3]
0: all other assays above

O=C(NOC[C@H](O)CO)c1ccc(F)c(F)c1Nc1ccc(I)cc1F (2.5 µM)
0: all assays above

N#CC(=Cc1ccc(O)c(O)c1)C(=O)NCc1ccccc1 (mixture of isomers) (10 µM)
0: all assays above

CCn1c(=O)c2cc(C(N)=O)c(N)nc2n(C2CC2)c1=O (10 µM)
0: all assays above

Cc1c[nH]c(/C=C2\C(=O)Nc3ccccc32)c1CCC(=O)O (10 µM)
0: all assays above

CN1CCN(c2ccc(C(=O)Nc3n[nH]c4ccc(Cc5cc(F)cc(F)c5)cc34)c(NC3CCOCC3)c2)CC1 [Entrectinib] (2.5 µM)
1: [20]
0: all other assays above

Cn1nc(C(C)(C)C)cc1NC(=O)Nc1ccc(Oc2ccncc2)cc1 (10 µM)
4: [20]
2: [4] | [5] | [8] | [10]
0: all other assays above

COc1ccc2c(C(=O)Nc3ccc(NC(=O)c4nn(C5CCN(C(=O)CC(C)(C)C#N)CC5)c5ccc(F)cc45)cc3Cl)cnn2c1 [Src Inhibitor 3] (2.5 µM)
3: [5] | [10]
0: [1] | [11] | [12] | [14] | [15] | [17]
1: [6] | [7] | [8] | [13] | [16]
2: all other assays above

CCCCOc1c(C(=O)c2c(F)cc(C)cc2F)c[nH]c2nncc1-2 (10 µM)
0: all assays above

Cc1c[nH]c2nccc(Oc3c(F)cc(Nc4cc(Cl)nc(N)n4)cc3F)c12 (10 µM)
5: [2]
3: [19]
1: [20]
0: all other assays above

C=CC(=O)N1CCN(CCCn2c(=O)c(-c3c(Cl)c(OC)cc(OC)c3Cl)cc3cnc(NC)nc32)CC1 (10 µM)
0: all assays above

CC[C@H](CO)Nc1nc(NCc2ccccc2)c2ncn(C(C)C)c2n1 [Seliciclib] (10 µM)
0: all assays above

O=C1NC(=NCc2cccs2)S/C1=C\c1ccc2ncccc2c1 (10 µM)
0: all assays above

Cc1nc(-c2cnc(NC(C)C)n(C)c2=O)ccc1Oc1ccnc(-c2cnn(C)c2)c1 (2.5 µM)
2: [5]
0: all other assays above

CN1CCN(S(=O)(=O)c2ccc(-c3cnc(N)c(C(=O)Nc4cccnc4)n3)cc2)CC1 (10 µM)
0: all assays above

Nc1nc(OCC2CCCCC2)c2[nH]cnc2n1 (10 µM)
0: all assays above

N#C/C(=C\c1ccc(O)c(O)c1)C(=O)NCCCc1ccccc1 (10 µM)
0: all assays above

c1cc(OCCN2CCCCC2)cc(-c2n[nH]c3ccc(-c4nnc[nH]4)cc23)c1 [CC-401 (hydrochloride)] (10 µM)
0: all assays above

O=c1oc2ccccc2c(O)c1Cc1c(O)c2ccccc2oc1=O [Dicoumarol] (10 µM)
0: all assays above

CCCCNc1ncc(-c2ccc(CN3CCOCC3)cn2)c(NC2CCC(O)CC2)n1 (stereo not given) (10 µM)
0: all assays above

COc1cc(CCc2cc(-c3nc4ccc(N5CCN(C)CC5)cc4[nH]3)n[nH]2)cc(OC)c1 (10 µM)
1: [10] | [18]
3: [4] | [19]
4: [5] | [20]
2: [8]
0: all other assays above

CCCn1cnc2c(NCc3ccccc3)nc(NC(CC)CO)nc21 (stereo not given) [Ca2+ channel agonist 1] (2.5 µM)
0: all assays above

COc1cc2nc(C)nc(N[C@H](C)c3cc(N)cc(C(F)(F)F)c3)c2cc1O[C@H]1CCOC1 (10 µM)
1: [4]
0: all other assays above

CNc1nc(-c2ccc3c(N)n[nH]c3c2)cc(N2C[C@@H](C(=O)NC3CCCCC3)CC[C@H]2C)n1 (10 µM)
0: all assays above

COc1ccc(C=C(C#N)c2cccnc2)cc1OC (10 µM)
0: all assays above

CCOc1ccn(-c2ccc(F)cc2)c(=O)c1C(=O)Nc1ccc(Oc2ccnc(N)c2Cl)c(F)c1 (10 µM)
2: [6] | [8]
4: [5]
3: [10] | [20]
1: [2] | [3] | [4] | [9] | [18] | [19]
0: all other assays above

Nc1nc(N)c(N=O)c(OCC2CCCCC2)n1 (10 µM)
0: all assays above

4 records drawn at random from the list so far, as already listed:
COc1cc2c(Nc3ccc(NC(=O)c4ccccc4)cc3)ncnc2cc1OCCCN1CCOCC1 (10 µM)
2: [19]
0: all other assays above

COc1ccc2c(C(=O)Nc3ccc(NC(=O)c4nn(C5CCN(C(=O)CC(C)(C)C#N)CC5)c5ccc(F)cc45)cc3Cl)cnn2c1 [Src Inhibitor 3] (2.5 µM)
3: [5] | [10]
0: [1] | [11] | [12] | [14] | [15] | [17]
1: [6] | [7] | [8] | [13] | [16]
2: all other assays above

NC(=O)c1ccc2nc(-c3ccc(Oc4ccc(Cl)cc4)cc3)[nH]c2c1 (10 µM)
0: all assays above

CCn1c(=O)c2cc(C(N)=O)c(N)nc2n(C2CC2)c1=O (10 µM)
0: all assays above

The listing continues:

O=C(Nc1ccc(-c2ccnc(Nc3ccc(N4CCOCC4)cc3)n2)cc1)C1CCCN1 (stereo not given) (10 µM)
0: all assays above

CC(C)(/C=C(\C#N)C(=O)N1CCC[C@@H](n2nc(-c3ccc(Oc4ccccc4)cc3F)c3c(N)ncnc32)C1)N1CCN(C2COC2)CC1 (2.5 µM)
0: all assays above

CN(C)CCOc1ccc(-c2nc(-c3ccncc3)c(-c3ccc4c(c3)CC/C4=N\O)[nH]2)cc1 (10 µM)
2: [10]
0: all other assays above

O=C(O)CCNC(=O)c1ccc(/N=N/c2ccc(O)c(C(=O)O)c2)cc1 [Balsalazide] (10 µM)
0: all assays above

CN(C)C[C@@H]1CCn2cc(c3ccccc32)C2=C(C(=O)NC2=O)c2cn(c3ccccc23)CCO1 [Ruboxistaurin (hydrochloride)] (10 µM)
0: all assays above

CN(C)Cc1ccc(-c2cnn3c(-c4cccc(NC(=O)c5cccc(C(F)(F)F)c5)c4)ccnc23)cc1 (2.5 µM)
0: all assays above
